Test results taken from patent US20230374132A1.
Positions count from the first letter of the chain named. These are yes or no findings as the source states them, for the method shown. Some binding calls cover weakened binding; strength is not graded here. One block for each binder: values may come before it.

Protein sequences, listed by entry. Tags and fused reporters are not part of them. Lines headed by an entry give the natural chain unless they say otherwise; changes in a name come on top.
UniProt P07766: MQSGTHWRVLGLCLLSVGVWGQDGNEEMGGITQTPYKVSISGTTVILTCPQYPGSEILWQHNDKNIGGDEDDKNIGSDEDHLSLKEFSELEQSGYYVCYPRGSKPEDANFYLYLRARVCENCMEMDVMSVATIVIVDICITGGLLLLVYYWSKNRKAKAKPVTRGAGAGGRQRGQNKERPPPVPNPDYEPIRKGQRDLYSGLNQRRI
UniProt P04234: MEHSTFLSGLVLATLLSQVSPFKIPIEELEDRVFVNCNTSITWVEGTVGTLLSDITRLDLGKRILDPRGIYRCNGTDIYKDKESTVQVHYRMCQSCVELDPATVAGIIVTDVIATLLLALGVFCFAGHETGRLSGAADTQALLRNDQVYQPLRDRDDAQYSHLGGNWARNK
UniProt P09693: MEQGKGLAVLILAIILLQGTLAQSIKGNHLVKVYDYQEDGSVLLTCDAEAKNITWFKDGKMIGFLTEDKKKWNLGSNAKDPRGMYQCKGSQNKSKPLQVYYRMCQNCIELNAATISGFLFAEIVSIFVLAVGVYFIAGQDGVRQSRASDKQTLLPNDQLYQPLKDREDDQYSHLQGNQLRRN

Key:
[1] = target: T1, human CD3 complex on Jurkat cells (human) (UniProt P07766+P04234+P09693); test: flow cytometry on Jurkat cells
[2] = target: T1, human CD3 complex on Jurkat cells (human); test: flow cytometry on Jurkat cells (human CD3 complex), PE anti-human Fc secondary antibody, Example 3.2
[3] = target: T1, human CD3 complex on Jurkat cells (human); test: flow cytometry on Jurkat cells (human CD3 complex), method of Example 3.2
[4] = target: T1, human CD3 complex on Jurkat cells (human); test: flow cytometry on Jurkat cells (human CD3 complex), 'Jurkat cell line binding', method of Example 3.2
[5] = target: T1, human CD3 complex on Jurkat cells (human); test: flow cytometry on Jurkat cells (human CD3 complex), 'Jurkat cell line binding', Example 3.2 [cont) D]
[6] = target: T1, human CD3 complex on Jurkat cells (human); test: flow cytometry on Jurkat cells (human CD3 complex), PE anti-human Fc secondary antibody, Example 3.2 [cont) C]

- binding [1]: binds
- binding [2]: binds
B1: hzsp34.39 (antibody, human IgG1, kappa, L234A L235A, V domains shown)
VH: EVQLVESGGGLVQPGGSLKLSCAASGFTFNTYAMNWVRQASGKGLEWVGRIRSKYNNYATYYADSVKDRFTISRDDSKSTLYLQMNSLKTEDTAVYYCARHGNFGQSYVSWFAYWGQGTTVTVSS
VL: EIVMTQSPATLSVSPGERATLSCRSSTGAVTTSNYANWVQQKPGQAPRGLIGGTNKRAPGVPARFSGSGSGTEFTLTISSLQSEDFAVYYCALWYSNLWVFGQGTKLTVLR

- binding [1]: binds
- binding [3]: binds
- binding [4]: binds
B2: hzsp34.87 (antibody, human IgG1, lambda, L234A L235A, V domains shown)
VH: B1 VH with G102Y
VL: QAVVTQEPSLTVSPGGTVTLTCRSSTGAVTTSNYANWVQQKPGQAPRGLIGGTNKRAPGVPARFSGSLLGDKAALTLLGAQPEDEAEYYCALWYSNLWVFGQGTKLTVLG

- binding [1]: binds
- binding [3]: binds
- binding [4]: binds
B3: hzsp34.101 (antibody, human IgG1, lambda, L234A L235A, V domains shown)
VH: B1 VH with Y108A, V109A
VL: B2 VL

- binding [1]: binds
- binding [3]: binds
- binding [5]: binds
- binding [6]: binds
B4: hzsp34.45 (antibody, human IgG1, kappa, L234A L235A, V domains shown)
VH: B1 VH with G49A
VL: B1 VL with T72D

- binding [1]: binds
- binding [2]: binds
B5: hzsp34.19 (antibody, human IgG1, lambda, L234A L235A, V domains shown)
VH: B1 VH
VL: B2 VL with D71G

- binding [1]: binds
- binding [2]: binds
B6: hzsp34.20 (antibody, human IgG1, lambda, L234A L235A, V domains shown)
VH: B1 VH with G49A
VL: B2 VL with D71G

- binding [1]: binds
- binding [6]: binds
B7: hzsp34.44 (antibody, human IgG1, kappa, L234A L235A, V domains shown)
VH: B1 VH
VL: B1 VL with T72D

- binding [1]: binds
- binding [3]: binds
- binding [4]: binds
B8: hzsp34.97 (antibody, human IgG1, lambda, L234A L235A, V domains shown)
VH: B1 VH with Y55A, N56G, N57G
VL: B2 VL

- binding [1]: binds
- binding [3]: binds
- binding [4]: binds
B9: hzsp34.116 (antibody, human IgG1, lambda, L234A L235A, V domains shown)
VH: B1 VH
VL: B2 VL with K55S, N96D

- binding [1]: binds
- binding [3]: binds
- binding [2]: binds
- binding [5]: binds
B10: hzsp34.24 (antibody, human IgG1, lambda, L234A L235A, V domains shown)
VH: B1 VH
VL: B2 VL

- binding [1]: binds
- binding [3]: binds
- binding [2]: binds
- binding [5]: binds
B11: hzsp34.40 (antibody, human IgG1, kappa, L234A L235A, V domains shown)
VH: B1 VH with G49A
VL: B1 VL
